Results are given in words; binding and its absence hold for the method and conditions named. Some binding calls cover weakened binding; strength is not graded here.
Biological target: T1, sine oculis homeobox 1 (SIX1) (human (endogenous in HepG2)) (UniProt Q15475)
T1 sequence: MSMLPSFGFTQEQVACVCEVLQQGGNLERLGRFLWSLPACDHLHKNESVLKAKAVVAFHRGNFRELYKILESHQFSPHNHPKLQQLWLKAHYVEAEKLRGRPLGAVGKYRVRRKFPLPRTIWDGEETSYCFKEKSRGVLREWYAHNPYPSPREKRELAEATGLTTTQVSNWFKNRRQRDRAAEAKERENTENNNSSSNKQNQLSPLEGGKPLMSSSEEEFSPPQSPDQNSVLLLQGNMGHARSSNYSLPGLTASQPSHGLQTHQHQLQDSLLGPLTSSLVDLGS
Experiment: Re-ChIP (sequential chromatin immunoprecipitation); cross-linked chromatin of HepG2 cells; complexes eluted from the primary immunoprecipitation with 10 mM DTT at 37 °C for 30 min, diluted 1:50 in 1% Triton X-100, 2 mM EDTA, 150 mM NaCl, 20 mM Tris/HCl pH 8.1, re-immunoprecipitated with the second antibodies; read-out real-time PCR of lipogenic gene promoters

Chains of the proteins cited; added tags and fusions are not shown.
UniProt O95251: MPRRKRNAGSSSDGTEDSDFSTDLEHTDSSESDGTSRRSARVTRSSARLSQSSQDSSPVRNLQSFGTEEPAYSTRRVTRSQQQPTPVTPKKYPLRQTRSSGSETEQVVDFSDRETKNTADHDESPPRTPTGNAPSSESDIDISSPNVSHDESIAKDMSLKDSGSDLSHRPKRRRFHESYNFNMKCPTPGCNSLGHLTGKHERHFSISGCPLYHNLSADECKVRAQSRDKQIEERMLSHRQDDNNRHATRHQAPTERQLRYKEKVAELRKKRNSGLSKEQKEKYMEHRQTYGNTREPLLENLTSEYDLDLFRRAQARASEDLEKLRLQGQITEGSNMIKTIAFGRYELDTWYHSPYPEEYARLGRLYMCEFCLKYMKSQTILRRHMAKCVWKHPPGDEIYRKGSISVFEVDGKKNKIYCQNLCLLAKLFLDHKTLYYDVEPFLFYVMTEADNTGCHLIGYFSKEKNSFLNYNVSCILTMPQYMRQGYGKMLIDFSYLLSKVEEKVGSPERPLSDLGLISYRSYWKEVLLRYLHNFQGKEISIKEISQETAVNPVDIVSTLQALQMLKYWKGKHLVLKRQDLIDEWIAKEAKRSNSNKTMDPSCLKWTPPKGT
UniProt Q9Y6Q9: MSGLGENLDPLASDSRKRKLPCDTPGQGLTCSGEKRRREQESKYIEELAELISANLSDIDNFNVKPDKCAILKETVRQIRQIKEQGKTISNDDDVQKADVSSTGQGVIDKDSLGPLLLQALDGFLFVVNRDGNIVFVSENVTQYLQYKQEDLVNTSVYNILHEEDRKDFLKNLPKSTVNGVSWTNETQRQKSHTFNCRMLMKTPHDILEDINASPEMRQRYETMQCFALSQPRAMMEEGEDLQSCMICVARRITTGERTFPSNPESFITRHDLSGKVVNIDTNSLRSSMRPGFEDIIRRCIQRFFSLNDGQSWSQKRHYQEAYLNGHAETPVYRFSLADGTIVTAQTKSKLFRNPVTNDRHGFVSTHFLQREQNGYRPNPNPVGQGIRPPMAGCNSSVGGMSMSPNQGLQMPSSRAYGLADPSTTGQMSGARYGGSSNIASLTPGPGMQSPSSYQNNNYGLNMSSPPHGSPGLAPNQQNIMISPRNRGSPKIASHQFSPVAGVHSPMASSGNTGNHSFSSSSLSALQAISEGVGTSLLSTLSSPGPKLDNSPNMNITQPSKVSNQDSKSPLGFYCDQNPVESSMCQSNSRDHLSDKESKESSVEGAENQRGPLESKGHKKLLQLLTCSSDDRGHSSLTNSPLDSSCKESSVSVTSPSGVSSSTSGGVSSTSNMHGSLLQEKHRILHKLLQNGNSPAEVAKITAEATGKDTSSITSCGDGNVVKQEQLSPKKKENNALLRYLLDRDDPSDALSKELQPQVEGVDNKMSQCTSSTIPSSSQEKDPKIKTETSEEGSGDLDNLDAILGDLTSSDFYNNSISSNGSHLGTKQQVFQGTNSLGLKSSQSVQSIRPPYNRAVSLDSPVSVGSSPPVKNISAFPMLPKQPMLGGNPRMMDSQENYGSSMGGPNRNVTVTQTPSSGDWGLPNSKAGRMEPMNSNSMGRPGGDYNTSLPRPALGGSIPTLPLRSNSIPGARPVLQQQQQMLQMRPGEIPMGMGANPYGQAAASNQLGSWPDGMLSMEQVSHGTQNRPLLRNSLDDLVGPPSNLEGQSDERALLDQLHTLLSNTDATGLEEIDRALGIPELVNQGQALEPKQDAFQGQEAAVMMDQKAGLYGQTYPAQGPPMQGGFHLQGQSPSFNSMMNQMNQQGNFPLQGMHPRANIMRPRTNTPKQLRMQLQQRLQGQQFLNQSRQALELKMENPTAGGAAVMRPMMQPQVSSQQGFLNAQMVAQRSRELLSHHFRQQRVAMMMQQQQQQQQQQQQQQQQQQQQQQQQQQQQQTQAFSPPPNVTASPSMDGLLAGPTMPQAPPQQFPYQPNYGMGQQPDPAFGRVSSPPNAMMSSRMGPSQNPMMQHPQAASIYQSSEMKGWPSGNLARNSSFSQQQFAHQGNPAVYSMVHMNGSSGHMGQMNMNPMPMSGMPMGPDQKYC

| binding | Substance |
| --- | --- |
| binds | lysine acetyltransferase 7 (HBO1/KAT7) (from UniProt O95251 1-611) |
| binds | amplified in breast cancer 1 (AIB1) (from UniProt Q9Y6Q9 1-1424) |
